Source: US9861592B2, “Methods and compositions for treating neurodegenerative diseases” (Golden Biotechnology Corporation, priority 2012, dated 2018)
For at least one compound, name, drawing or mass did not settle the structure.

How the values were obtained:
[1] = system: NGF-induced PC12 cells challenged with β-Amyloid (Aβ); experiment: Prophylactic effect on AD cell model: pretreatment with Compound 1, then β-Amyloid challenge, CCK-8 cell viability; type: cell-based, rat; conditions: Compound 1 pretreatment 24 h (25 and 50 in 10% serum medium; 0.3 and 3 in serum-free medium), then 10 μM Aβ 24 h; FIGS. 2A and 2C
[2] = system: PC12 cells pretreated with β-Amyloid (Aβ); experiment: Therapeutic effect on AD cell model: pretreatment with β-Amyloid, then Compound 1, CCK-8 cell viability; type: cell-based, rat; conditions: 10 μM Aβ pretreatment 24 h in serum and serum-free medium, then Compound 1 24 h; FIGS. 2B and 2D

`COC1=C(OC)C(O)C(C/C=C(\C)CC/C=C(\C)CCC=C(C)C)C(C)C1=O` (centres unmarked) [Compound 1, 4-hydroxy-2,3-dimethoxy-6-methyl-5-(3,7,11-trimethyldodeca-2,6,10-trienyl)cyclohex-2-enone] was tested, and the “Prevention of Aβ-induced neuronal damage (cell viability)” value [1] was “significant impact in preventing (reducing the risk of) cells from Aβ-induced neuronal damage” and the “Inhibition of damage induced by Aβ (cell viability)” value [2] was “dramatically inhibits the damage induced by Aβ and improves the cell viability”.
